According to article PMC10507871:
These are yes or no findings as the source states them, for the method shown. Binding seen in cells or lysates may run through a third protein. Some results given as binding are weak or reduced against the parent protein; the word gives no strength.

Biological target: T1, ZBTB48 (telomeric zinc finger-associated protein, TZAP) (human (endogenous in patient-derived GSCs)) (UniProt P10074)
T1 sequence: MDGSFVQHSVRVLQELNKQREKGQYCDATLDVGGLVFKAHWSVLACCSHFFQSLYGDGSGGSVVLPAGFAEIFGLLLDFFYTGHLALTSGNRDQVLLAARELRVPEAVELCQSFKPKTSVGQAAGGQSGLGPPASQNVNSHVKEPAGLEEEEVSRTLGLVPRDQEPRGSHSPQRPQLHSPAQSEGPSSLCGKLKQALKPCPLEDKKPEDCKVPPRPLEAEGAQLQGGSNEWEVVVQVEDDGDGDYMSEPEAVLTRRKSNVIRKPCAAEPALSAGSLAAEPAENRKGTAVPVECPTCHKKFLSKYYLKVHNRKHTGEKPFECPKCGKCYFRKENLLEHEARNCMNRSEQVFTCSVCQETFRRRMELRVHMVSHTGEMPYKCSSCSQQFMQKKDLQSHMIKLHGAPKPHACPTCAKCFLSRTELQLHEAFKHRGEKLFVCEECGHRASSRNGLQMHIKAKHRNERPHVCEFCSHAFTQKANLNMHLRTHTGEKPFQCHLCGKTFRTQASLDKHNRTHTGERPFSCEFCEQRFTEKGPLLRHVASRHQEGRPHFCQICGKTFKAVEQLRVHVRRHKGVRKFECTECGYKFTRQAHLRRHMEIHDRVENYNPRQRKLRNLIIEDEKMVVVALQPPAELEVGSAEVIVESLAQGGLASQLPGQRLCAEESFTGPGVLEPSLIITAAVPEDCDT
Assay: co-IP; GSC lysates (SYNS03, SYNS05; IP lysis buffer with protease and phosphatase inhibitors) incubated with antibody-coupled magnetic beads at 4 °C overnight, then western blot; also done after circRNF10 knockdown in SYNS03, where binding was enhanced

B1: makorin ring finger protein 3 (MKRN3) (enzyme, UniProt Q13064 1-507)
chain: MEEPAAPSEAHEAAGAQAGAEAAREGVSGPDLPVCEPSGESAAPDSALPHAARGWAPFPVAPVPAHLRRGGLRPAPASGGGAWPSPLPSRSSGIWTKQIICRYYIHGQCKEGENCRYSHDLSGRKMATEGGVSPPGASAGGGPSTAAHIEPPTQEVAEAPPAASSLSLPVIGSAAERGFFEAERDNADRGAAGGAGVESWADAIEFVPGQPYRGRWVASAPEAPLQSSETERKQMAVGSGLRFCYYASRGVCFRGESCMYLHGDICDMCGLQTLHPMDAAQREEHMRACIEAHEKDMELSFAVQRGMDKVCGICMEVVYEKANPNDRRFGILSNCNHSFCIRCIRRWRSARQFENRIVKSCPQCRVTSELVIPSEFWVEEEEEKQKLIQQYKEAMSNKACRYFAEGRGNCPFGDTCFYKHEYPEGWGDEPPGPGGGSFSAYWHQLVEPVRMGEGNMLYKSIKKELVVLRLASLLFKRFLSLRDELPFSEDQWDLLHYELEEYFNLIL
With B1 the binding was “binds”.
